The text below walks through data of article PMC6823300, “The molecular basis of monopolin recruitment to the kinetochore” (Chromosoma, 2019).

Results are given in words; binding and its absence hold for the method and conditions named. A result given as binding can be weak or reduced; the word gives no strength. Where a sequence is shown, tags or fusion partners need not be part of it.

The target in the test is Cg His6-Csm1^69–181 (Candida glabrata). Put plainly: crystal structure; Cg His6-Csm1 69–181:ScDsn1 71–110; 0.2 M MgCl2, 0.1 M Tris-HCl pH 8.5, 25% PEG 3350; 2.5 Å; both purified.

B1: His6-MBP-fused S. cerevisiae Dsn1 Box 1-2-3 region (residues 71–110 of 576) (domain or fragment, UniProt P40568 71-110, looked up)
chain: DLKFKRHKNKHIQGFPTLGERLDNLQDIKKAKRVENFNSS
notes: S. cerevisiae Dsn1, Box 1-2-3 region, residues 71-110 of 576; also called Sc Dsn1^71–110; His6-MBP-fused Dsn1 fragment; source: E. coli Rosetta2 (DE3) pLysS, purified
As for B1, the binding entry is “binds”.
